# Data: US20250241876A1, “ANTI-TUMOR COMPOUNDS AND METHODS OF USE THEREOF AND SYNTHESIS THEREOF” (Atossa Therapeutics, Inc., priority 2023, published 2025)
# For at least one compound, name, drawing or mass did not settle the structure.
# Tested on: ER− T47D cells
# Test: Luciferase (ERE reporter) agonist/antagonist assay, ER− cells
# Format: cell-based
smiles,measurement,value
"CC/C(=C(\c1ccc(O)cc1)c1ccc(OCCNC)cc1)c1ccccc1 [endoxifen, reference compound]",response of ER− cells,only exhibited a response to 5 μM endoxifen
